Results published in patent publication EP1094711B1, “METHODS FOR ERADICATION OF NANOBACTERIA” (Nanobac Oy, priority 1998, dated 2000).
At least one structure is not confirmed: it was looked up by name or label, or the drawing left a doubt.

How the values were obtained:
[1] = tested on: human nanobacteria; test: MIC test, effect of tetracycline on human nanobacteria isolates (Figure 25); assay type: cell-based; conditions: compared to the bovine nanobacteria standard strain
[2] = tested on: nanobacteria; test: Treatment of human patients infected with nanobacteria; conditions: Kidney stone patients treated with 4 × 500 mg/day, initially nanobacteria-positive

CN(C)[C@@H]1C(O)=C(C(N)=O)C(=O)[C@@]2(O)C(O)=C3C(=O)c4c(O)cccc4[C@@](C)(O)[C@H]3C[C@@H]12 [Tetracycline]
effect on human nanobacteria isolates [1]: effective
urine culture results for nanobacteria [2]: negative urine cultures
